Consider 11 substances from patent US11352391B2 (Dignify Therapeutics, LLC, priority 2017, dated 2022).

Where no end group is shown, it is not given here. [ ]: non-standard residue; d: D form. NMeL = CN[C@@H](CC(C)C)C(=O)O; Nle = CCCC[C@H](N)C(=O)O; βAla = NCCC(=O)O

This data set is described as follows: general procedure: Fmoc solid-phase peptide synthesis. As to conditions: whole synthesis.
Regarding Asp-Lys-Phe-Val-Gly-(NMe-Leu)-Met-NH2, the “final HPLC purity” value came out at 98%.
On to Asp-Lys-Phe-Val-Gly-Leu-Met-NH2, for which the “final HPLC purity” value was 95%.
As for Asp-Lys-Phe-Val-Gly-Leu-Nle-NH2, the “final HPLC purity” value was found to be 95%.
Consider DKFV[βAla]LM-NH2, for which the “final HPLC purity” value is 96%.
For DKFV[βAla]L[Nle]-NH2, the “final HPLC purity” value was found to be 99%.
For DRFVGLM-NH2 the value was 96%; for DRFVGL[Nle]-NH2, 99%.
As for DRFVG[NMeL]M-NH2, the figure is 98%; as for DRFVG[NMeL][Nle]-NH2, 99%; as for DRFV[βAla]LM-NH2, 99%.
For DRFV[βAla]L[Nle]-NH2 the value was 97%.
